Data: PMC8435428
These are yes or no findings as the source states them, for the method shown. In cells and extracts the contact can be indirect. Some binding calls cover weakened binding; strength is not graded here. Where a sequence is shown, tags or fusion partners need not be part of it.

By UniProt entry, the sequences of proteins in these tests, tags left out.
UniProt Q15672: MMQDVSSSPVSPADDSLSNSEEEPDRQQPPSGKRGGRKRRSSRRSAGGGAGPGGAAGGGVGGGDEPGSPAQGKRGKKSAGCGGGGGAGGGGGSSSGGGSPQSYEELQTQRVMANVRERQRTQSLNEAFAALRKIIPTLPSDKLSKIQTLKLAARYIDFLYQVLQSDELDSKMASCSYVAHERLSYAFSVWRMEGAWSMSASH

Biological target: T1, Flag-tagged human hexokinase 2 (HK2) (human) (UniProt P52789)
T1 sequence: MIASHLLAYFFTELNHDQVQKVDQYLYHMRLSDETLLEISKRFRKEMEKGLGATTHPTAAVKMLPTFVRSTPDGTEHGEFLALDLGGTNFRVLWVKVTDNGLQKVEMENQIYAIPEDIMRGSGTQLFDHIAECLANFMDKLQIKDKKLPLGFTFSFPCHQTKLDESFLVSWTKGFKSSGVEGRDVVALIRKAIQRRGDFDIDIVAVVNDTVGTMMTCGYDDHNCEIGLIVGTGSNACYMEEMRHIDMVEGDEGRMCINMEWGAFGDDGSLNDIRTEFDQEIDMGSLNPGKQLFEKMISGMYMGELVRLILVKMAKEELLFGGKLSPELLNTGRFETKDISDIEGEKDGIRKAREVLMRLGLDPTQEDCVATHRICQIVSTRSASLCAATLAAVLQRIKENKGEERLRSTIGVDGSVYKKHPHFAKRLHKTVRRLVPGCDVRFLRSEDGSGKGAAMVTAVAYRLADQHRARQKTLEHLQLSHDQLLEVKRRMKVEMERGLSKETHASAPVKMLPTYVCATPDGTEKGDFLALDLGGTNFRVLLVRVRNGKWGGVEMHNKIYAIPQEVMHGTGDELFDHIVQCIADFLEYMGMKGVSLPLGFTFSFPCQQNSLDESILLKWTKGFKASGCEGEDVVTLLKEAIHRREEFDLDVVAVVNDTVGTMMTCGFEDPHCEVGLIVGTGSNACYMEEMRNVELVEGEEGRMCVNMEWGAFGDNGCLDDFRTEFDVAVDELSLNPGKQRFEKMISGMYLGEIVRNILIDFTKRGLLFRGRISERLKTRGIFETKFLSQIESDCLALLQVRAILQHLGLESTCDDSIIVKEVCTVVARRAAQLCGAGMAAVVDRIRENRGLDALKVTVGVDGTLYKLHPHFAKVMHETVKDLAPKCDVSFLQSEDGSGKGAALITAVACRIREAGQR
Assay: co-IP; RKO cells transfected with Flag-tagged HK2 plasmid or HA-tagged Twist1 for 48 h, lysed; supernatants incubated with anti-DYDDDDK or anti-HA magnetic beads at 4°C overnight; immunoblotting

binding: binds
Substance: HA-tagged human Twist family bHLH transcription factor 1 (Twist1) (from UniProt Q15672 1-202)
